Source: PubChem BioAssay AID540303 (National Center for Advancing Translational Sciences (NCATS), 2011)
Hit rate of the full screen: of about 330,000 compounds, about 1,000 (0.3%) were called active. The inconclusive results got no clear call from the source; some entries with a clear call stand among them for comparison. Calls follow the shape of the dose curve; as a rule, active = well fitted inhibition curve with a large enough effect; inconclusive = small, poorly fitted or top-dose-only effect; inactive = no such curve, though single readings can be large or run the other way; tested in mouse RAW 264.7 cells. Where the call is inconclusive, the potency comes from a doubtful curve fit.
% is scaled to controls: 0 for no effect and ±100 for the full control effect; potency is read from the fitted curve at half-maximal effect.

Assay: qHTS for Inhibitors of Cell Surface uPA Generation; also: nearly all actives have a fitted effect of over 55% in size
Conditions: cell surface uPA generation assay; series mostly up to 38.3 µM; activity change, negative = inhibition: at the top concentration
How it was run: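 Murine RAW 264.7 cells are treated for 24 h with compound up to 38.3 uM final. Cell ATP, measured by ATP-Lite, remains high if blocking the uPA cascade prevents LF from reaching the cytoplasm.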
For C=CCNc1oc(-c2ccc(Cl)cc2)nc1C#N, the Potency was inconclusive: 7.94 µM [inhibitor, partial curve, poor fit].
For COc1ccc([C@H]2CC(=O)C=C(c3cc(C=O)ccc3OC)C2)cc1OC, the Potency was inconclusive: 28.2 µM [inhibitor, single point].
For CCCOc1ccc(Br)cc1CSC(=N)N, the Potency was active: 5.62 µM.
For Cc1ccc(C(=O)NCCc2ccccn2)cc1S(=O)(=O)N1CCOCC1, the “activity change, negative = inhibition” value was inactive: -1.4%.
For O=S1(=O)C=CC(Nc2cccc(Cl)c2)C1 (stereo not given), the Potency was inconclusive: 11.2 µM [inhibitor, single point].
For CCN1CCCC1CNC(=O)c1ccc2c(c1)N(Cc1ccccc1F)C(=O)c1ccccc1S2(=O)=O (stereo not given), the Potency was inconclusive: 1 µM [inhibitor, partial curve, poor fit].
In the case of O=C(CSc1nc(-c2ccc(Cl)cc2)cs1)Nc1cccc([N+](=O)[O-])c1, the Potency was inconclusive: 11.2 µM [inhibitor, single point].
With CC1c2cc3c(cc2CCN1CC(=O)Nc1ccccc1)OCCCO3 (stereo not given) the Potency was inconclusive: 12.6 µM [inhibitor, single point].
For CC(C)(C)n1ncc2c(=O)n(Cc3cccc(Cn4cnc5c(cnn5C(C)(C)C)c4=O)c3F)cnc21, the Potency was inconclusive: 8.91 µM [inhibitor, partial curve, poor fit].
With COCCCNC(=O)COC(=O)c1ccc(-c2nc3ccccc3s2)s1 the Potency was inconclusive: 31.6 µM [inhibitor, partial curve, poor fit].
With O=C(CCc1nc2ccccc2c(=O)[nH]1)NNC(=O)c1cccc(Cl)c1 the “activity change, negative = inhibition” value was inactive: 4.91%.
In the case of CN(C)S(=O)(=O)N(CC(=O)Nc1ccc(F)c(F)c1)c1ccccc1, the Potency was inconclusive: 8.91 µM [inhibitor, partial curve, poor fit].
With CCCCCSc1nc2c(c(=O)[nH]c(=O)n2C)n1CC the Potency was inconclusive: 11.2 µM [inhibitor, partial curve, poor fit].
With CCCc1nc2ccccc2c(=O)n1N the “activity change, negative = inhibition” value was inactive: -2.65%.
For Cc1ccc(NC2=NCC(Cc3ccc(Br)cc3)S2)cc1 (stereo not given), the “activity change, negative = inhibition” value was inactive: -1.65%.
For COc1c(O)cc2oc(-c3ccc(O)cc3)cc(=O)c2c1O, the Potency was inconclusive: 28.2 µM [inhibitor, single point].
In the case of Nc1nc(-c2ccccc2)c(C(=O)Nc2ccccc2)s1, the “activity change, negative = inhibition” value was inactive: 4.27%.
In the case of CCCOc1ccc(C(=O)Nc2ccc(CN3CCOCC3)cc2)cc1, the “activity change, negative = inhibition” value was inactive: -7.14%.
With COc1ccc(NCc2nc3ccccc3n2C)cc1 the Potency was inconclusive: 10 µM [inhibitor, partial curve, poor fit].
With CC(C)=CC(=O)O[C@@H]1Cc2cc3ccc(=O)oc3cc2OC1(C)C the “activity change, negative = inhibition” value was inactive: -0.809%.
For O=C(Nc1ccc(CN2CCOCC2)cc1)c1cc2ccccn2n1, the Potency was inconclusive: 8.91 µM [inhibitor, partial curve, poor fit].
With Cc1c(Cl)cccc1NC(=O)C(=O)NNC(=O)c1ccccc1F the “activity change, negative = inhibition” value was inactive: -0.239%.
With CC(C)(C)n1ncc2c(=O)n(Cc3cccc(Cl)c3)cnc21 the Potency was inconclusive: 7.94 µM [inhibitor, partial curve, poor fit].
With Cc1ccccc1N1CCN(C2CCCN(C(=O)c3ccccn3)C2)CC1 (stereo not given) the Potency was inconclusive: 5.62 µM [inhibitor, partial curve, poor fit].
For Cc1cc(OC(=O)c2ccc(C(C)(C)C)cc2)c([N+](=O)[O-])c(=O)[nH]1, the Potency was inconclusive: 3.55 µM [inhibitor, partial curve, poor fit].
With Oc1ccc2c(c1)c1ccccc1c1ncccc21 the Potency was inconclusive: 12.6 µM [inhibitor, partial curve, poor fit].
In the case of COc1ccc(CNC(=O)C[C@H]2C[C@H](C(=O)N3CCOCC3)[C@@]3(CCC4CCCC4)c4[nH]c5ccc(Cl)cc5c4CCN3C2=O)cc1OC, the Potency was inconclusive: 22.4 µM [inhibitor, single point].
For Cc1ccc(Sc2c([N+](=O)[O-])c(=O)n(C)c3ccccc23)cc1, the Potency was inconclusive: 1.58 µM [inhibitor, partial curve, poor fit].
With CCCOc1cccc(C(=O)Nc2ccc3c(c2)OCCO3)c1 the Potency was active: 10 µM.
For c1ccc(-c2noc(-c3cccs3)n2)nc1, the Potency was inconclusive: 3.16 µM [inhibitor, partial curve].
In the case of COCCn1c(=N)c(C(=O)NCc2ccco2)cc2c(=O)n3ccccc3nc21, the “activity change, negative = inhibition” value was inactive: -5.87%.
With Cc1cccc(N2C(=O)c3ccccc3C2=O)n1 the “activity change, negative = inhibition” value was inactive: -4.21%.
In the case of OC(c1cc(C(F)(F)F)nc2c(C(F)(F)F)cccc12)C1CCCCN1 (stereo not given), the Potency was inconclusive: 7.08 µM [inhibitor, partial curve, poor fit].
For CN(CCOc1ccc(Cl)cc1)C(=O)c1cccc(S(=O)(=O)N2CCN(Cc3ccccc3)CC2)c1, the Potency was inconclusive: 11.2 µM [inhibitor, single point].
For C=C1CCN([C@@H](CC(C)C)C(=O)NCc2ccc(Cl)c(Cl)c2)S(=O)(=O)c2ccccc21, the Potency was inconclusive: 12.6 µM [inhibitor, single point].
For COCCNC(=O)c1ccc2c3n(nc2c1)-c1ccc(C)cc1CO3, the Potency was inconclusive: 7.94 µM [inhibitor, partial curve, poor fit].
In the case of Cc1ccccc1OCCn1c(=O)oc2ccccc21, the “activity change, negative = inhibition” value was inactive: -2.25%.
For Cc1ccc(-n2nnnc2-c2cccnc2)cc1, the “activity change, negative = inhibition” value was inactive: 6.39%.
With O=C(Cc1cccs1)NCCS(=O)(=O)N1CCN(c2ccccc2F)CC1 the Potency was active: 3.16 µM.
For CCn1ncc([N+](=O)[O-])c1C(=O)Nc1c(C)cccc1C, the Potency was inconclusive: 5.01 µM [inhibitor, partial curve, poor fit].
For CCCS(=O)(=O)c1nc(S(=O)(=O)c2ccc(C)cc2)c(N2CCOCC2)s1, the Potency was inconclusive: 12.6 µM [inhibitor, single point].
With COc1ccc(-c2noc(N3CCC(C(=O)NCCCN4CC(C)CC(C)C4)CC3)n2)cc1 (stereo not given) the Potency was inconclusive: 1.26 µM [inhibitor, partial curve, poor fit].
In the case of O=C1C2C3c4ccccc4C(c4ccccc43)C2C(=O)N1Cc1ccccn1 (stereo not given), the “activity change, negative = inhibition” value was inactive: -1.39%.
With O=C(NC(=S)N(Cc1ccccc1)Cc1ccccc1)C1CCCCC1 the “activity change, negative = inhibition” value was inactive: -0.103%.
With CCN(CC)c1ccc(N=Cc2cc(Br)ccc2O)cc1 the Potency was inconclusive: 10 µM [inhibitor, partial curve, poor fit].
With Cc1sc2ncnc(N3CCC(C(=O)Nc4cc(S(C)(=O)=O)ccc4Cl)CC3)c2c1C the “activity change, negative = inhibition” value was inactive: 4.75%.
With Cc1ccc(Nc2nnc(SCC(=O)NCCN3C(=O)CSC3=O)s2)cc1 the Potency was inconclusive: 8.91 µM [inhibitor, partial curve, poor fit].
In the case of O=C(Nc1cccnc1)c1cc([N+](=O)[O-])ccc1Cl, the Potency was inconclusive: 14.1 µM [inhibitor, partial curve, poor fit].
With CCOC(=O)N1CCN(C(=S)NC(=O)c2ccc(F)c(F)c2)CC1 the “activity change, negative = inhibition” value was inactive: 10.4%.
With O=C(NCCN1CCCCC1)Nc1ccccc1Cl the Potency was inconclusive: 3.55 µM [inhibitor, full curve, poor fit].
For CCOc1ccc(C(c2c(O)nc(SC)[nH]c2=O)c2c(O)nc(SC)[nH]c2=O)cc1, the Potency was inconclusive: 12.6 µM [inhibitor, partial curve, poor fit].
In the case of COc1ccc(C(=O)/C=C/c2ccccc2C(F)(F)F)cc1, the Potency was inconclusive: 11.2 µM [inhibitor, partial curve, poor fit].
In the case of O=C(N/N=C/C=C/c1ccccc1)c1ccccn1, the “activity change, negative = inhibition” value was inactive: -4%.
With CC(=O)/C=C1/C(=O)Nc2ccccc21 the Potency was inconclusive: 11.2 µM [inhibitor, single point].
For CCOc1cccc(-c2nc3c(s2)CCc2onc(-c4cccc([N+](=O)[O-])c4)c2-3)c1, the Potency was inconclusive: 8.91 µM [inhibitor, single point].
With COc1ccc(OC)c(NC(=O)CCNS(=O)(=O)c2ccc3[nH]c(=O)oc3c2)c1 the “activity change, negative = inhibition” value was inactive: -0.925%.
For CCCCC(=O)NC(c1cccs1)c1cc(Cl)c2cccnc2c1O (stereo not given), the Potency was inconclusive: 1.41 µM [inhibitor, full curve, poor fit].
With COc1ccc(Cl)cc1NS(=O)(=O)c1cccc(C(=O)NC2CCN(Cc3ccccc3)CC2)c1 the Potency was inconclusive: 10 µM [inhibitor, single point].
In the case of O=S(=O)(Nc1cc(Cl)ccc1-n1cncn1)c1ccccc1Cl, the “activity change, negative = inhibition” value was inactive: 2.03%.
In the case of CC(C)(C)c1ccc(C(=O)Nc2ccc3c(c2)C(=O)NC3=O)cc1, the Potency was inconclusive: 1 µM [inhibitor, partial curve, poor fit].
In the case of CC(OC(=O)c1ccc(NS(=O)(=O)c2cccs2)cc1)C(=O)N(C)C1CCCCC1 (stereo not given), the “activity change, negative = inhibition” value was inactive: 6.92%.
With O=C(OCC(=O)N1CCCCCC1)c1ccc[nH]c1=O the Potency was inconclusive: 0.316 µM [inhibitor, full curve, poor fit].
With COc1ccccc1Nc1cc2cc(Br)ccc2c(=O)[nH]1 the Potency was active: 3.16 µM.
For COc1ccc(-c2cn3ccccc3n2)cc1, the Potency was active: 2 µM.
For COc1ccccc1N/C=C/c1onc(C)c1[N+](=O)[O-], the Potency was inconclusive: 4.47 µM [inhibitor, partial curve].
With CC(=O)Nc1nc(-c2ccccc2)cc(-c2ccco2)c1C#N the Potency was inconclusive: 10 µM [inhibitor, partial curve, poor fit].
With OCCNc1nc(Nc2cc(Cl)ccc2OC2CCCC2)nc(N2CCCC2)n1 the Potency was inconclusive: 10 µM [inhibitor, single point].
For COc1cc(NC(c2ccccc2)c2ccccc2)cc(OC)c1OC, the “activity change, negative = inhibition” value was inactive: 3.79%.
With CCC(NC(=O)C(C)NC)C(=O)N1CCCC1C(=O)NC1CCCc2ccccc21 (stereo not given) the Potency was active: 0.398 µM.
For CC(=O)Oc1ccc(N(C(C)=O)S(=O)(=O)c2ccc(C)cc2C)c2ccccc12, the Potency was active: 10 µM.
